Measured values as given in paper PMC11150451.
Results are given in words; binding and its absence hold for the method and conditions named. Binding seen in cells or lysates may run through a third protein.

Sequences of proteins named here, by UniProt entry; tags and fusion partners are left off.
UniProt P52324: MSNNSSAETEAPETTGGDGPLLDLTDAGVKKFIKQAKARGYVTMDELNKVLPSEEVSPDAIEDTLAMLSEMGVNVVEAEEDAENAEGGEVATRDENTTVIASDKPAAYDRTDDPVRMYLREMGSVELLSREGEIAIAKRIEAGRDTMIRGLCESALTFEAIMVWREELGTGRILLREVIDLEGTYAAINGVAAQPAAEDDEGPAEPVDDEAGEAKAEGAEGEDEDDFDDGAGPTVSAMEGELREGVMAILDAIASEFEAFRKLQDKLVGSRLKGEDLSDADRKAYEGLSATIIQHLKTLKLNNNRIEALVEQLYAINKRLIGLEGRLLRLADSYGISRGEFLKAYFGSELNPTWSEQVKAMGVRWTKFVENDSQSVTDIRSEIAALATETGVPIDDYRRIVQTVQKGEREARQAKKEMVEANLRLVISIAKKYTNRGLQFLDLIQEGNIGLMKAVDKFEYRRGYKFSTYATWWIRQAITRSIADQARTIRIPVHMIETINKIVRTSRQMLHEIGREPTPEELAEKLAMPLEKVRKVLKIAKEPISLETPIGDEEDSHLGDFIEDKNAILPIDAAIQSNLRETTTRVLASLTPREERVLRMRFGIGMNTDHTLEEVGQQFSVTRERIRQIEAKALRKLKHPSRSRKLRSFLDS

Biological target: FLAG-tagged RpoD (sigma factor 70) (C. crescentus) (UniProt P52324)
Assay: co-IP; FLAG-tagged RpoD as bait on anti-FLAG magnetic beads (μMACS kit); stationary-phase C. crescentus lysate in 50 mM Tris-HCl pH 8, 150 mM NaCl, 1% Triton X-100, with Benzonase; immunoblots with anti-GafY, anti-ParB, anti-FLAG

binding: no binding
B1: ParB (protein, UniProt B8GW30 1-304)
chain: MESVVVGEPGMSEGRRGLGRGLSALLGEVDAAPAQAPGEQLGGSREAPIEILQRNPDQPRRTFREEDLEDLSNSIREKGVLQPILVRPSPDTAGEYQIVAGERRWRAAQRAGLKTVPIMVRELDDLAVLEIGIIENVQRADLNVLEEALSYKVLMEKFERTQENIAQTIGKSRSHVANTMRLLALPDEVQSYLVSGELTAGHARAIAAAADPVALAKQIIEGGLSVRETEALARKAPNLSAGKSKGGRPPRVKDTDTQALESDLSSVLGLDVSIDHRGSTGTLTITYATLEQLDDLCNRLTRGI
